From patent publication US20080305100A1, “Activated Protein C Inhibits Undesirable Effects of Plasminogen Activator in the Brain” (priority 2004, published 2008)
Some entries share one result that the patent states for a list of compounds.

System: caspase-3
Assay: Caspase-3 activity in cortical neuron lysate
Format: cell-based, mouse
Conditions: APC 20 nM, Ac-DEVD-CHO 50 μM, z-IETD-fmk 20 μM, z-LEHD-fmk 5 μM
Description: Primary neuronal cultures were prepared from fetal C57BU6J mice as we have previously described^23. Cultures were maintained in serum-free NEUROBASAL medium plus B27 supplement (Gibco BRL, Rockville, Md.) in a humidified 5% CO2 incubator at 37° C. for 14 days before 3 hr to 24 hr treatment with tPA (20 μg/ml) alone, NMDA (25 μM)/5 μM glycine, or tPA plus NMDA. Ac-DEVD-CHO (50 μM), z-IETD-fmk (20 μM), or z-LEHD-fmk (5 μM) was applied 3 hr prior to tPA/NMDA treatment. Mouse recombinant APC (20 nM) was added 30 min before tPA/NMDA treatment.
BEC or cortical neuron lysate was incubated at 37° C. with caspase-3 (DEVD-pNA), caspase-8 (IETD-pNA) (ApoAlert caspase assay kit; Clontech, Palo Alto, Calif.), or caspase-9 (Ac-LEHD-pNA; Chemicon; Temecula, Calif.) substrate. Substrate hydrolysis was determined as absorbance change at 405 nm in a microplate reader^23. Enzymatic activity was expressed in arbitrary units per mg of protein.

Row | Substance | reduction of caspase-3 activation in cells exposed to tPA/NMDA
1 | Ac-DEVD-CHO | greater than 90%
2 | z-IETD-fmk | greater than 90%
